Single values of this set are uncertain.
Tested on: Sindbis virus TE/5'2J-GFP
Assay: percent infected (GFP+ in RFP+ ISG-expressing cells); higher = more infection (less antiviral activity)
Settings: experiment: primary screen (single well)

| Sequence | percent infected (BHK/HA-Zeo (control)) [%] | percent infected (BHK/NZAP-Zeo (ZAP)) [%] |
| --- | --- | --- |
| MGRCCFYTAGTLSLLLLVTSVTLLVARVFQKAVDQSIEKKIVLRNGTEAFDSWEKPPLPVYTQFYFFNVTNPEEILRGETPRVEEVGPYTYRELRNKANIQFGDNGTTISAVSNKAYVFERDQSVGDPKIDLIRTLNIPVLTVIEWSQVHFLREIIEAMLKAYQQKLFVTHTVDELLWGYKDEILSLIHVFRPDISPYFGLFYEKNGTNDGDYVFLTGEDSYLNFTKIVEWNGKTSLDWWITDKCNMINGTDGDSFHPLITKDEVLYVFPSDFCRSVYITFSDYESVQGLPAFRYKVPAEILANTSDNAGFCIPEGNCLGSGVLNVSICKNGAPIIMSFPHFYQADERFVSAIEGMHPNQEDHETFVDINPLTGIILKAAKRFQINIYVKKLDDFVETGDIRTMVFPVMYLNESVHIDKETASRLKSMINTTLIITNIPYIIMALGVFFGLVFTWLACKGQGSMDEGTADERAPLIRT [SCARB2] | 96.9 | 92 |
| MGSEKDSESPRSTSLHAAAPDPKCRSGGRRRRLTLHSVFSASARGRRARAKPQAEPPPPAAQPPPAPAPAAAQGPPPEALPAEPAAEAEAEAAAAAAEPGFDDEEAAEGGGPGAEEVECPLCLVRLPPERAPRLLSCPHRSCRDCLRHYLRLEISESRVPISCPECSERLNPHDIRLLLADPPLMHKYEEFMLRRYLASDPDCRWCPAPDCGYAVIAYGCASCPKLTCEREGCQTEFCYHCKQIWHPNQTCDMARQQRAQTLRVRTKHTSGLSYGQESGPADDIKPCPRCSAYIIKMNDGSCNHMTCAVCGCEFCWLCMKEISDLHYLSPSGCTFWGKKPWSRKKKILWQLGTLIGAPVGISLIAGIAIPAMVIGIPVYVGRKIHSRYEGRKTSKHKRNLAITGGVTLSVIASPVIAAVSVGIGVPIMLAYVYGVVPISLCRGGGCGVSTANGKGVKIEFDEDDGPITVADAWRALKNPSIGESSIEGLTSVLSTSGSPTDGLSVMQGPYSETASFAALSGGTLSGGILSSGKGKYSRLEVQADVQKEIFPKDTASLGAISDNASTRAMAGSIISSYNPQDRECNNMEIQVDIEAKPSHYQLVSGSSTEDSLHVHAQMAENEEEGSGGGGSEEDPPCRHQSCEQKDCLASKPWDISLAQPESIRSDLESSDAQSDDVPDITSDECGSPRSHTAACPSTPRAQGAPSPSAHMNLSALAEGQTVLKPEGGEARV [RNF19B] | 96.8 | 97.4 |
| MGSQALPPGPMQTLIFFDMEATGLPFSQPKVTELCLLAVHRCALESPPTSQGPPPTVPPPPRVVDKLSLCVAPGKACSPAASEITGLSTAVLAAHGRQCFDDNLANLLLAFLRRQPQPWCLVAHNGDRYDFPLLQAELAMLGLTSALDGAFCVDSITALKALERASSPSEHGPRKSYSLGSIYTRLYGQSPPDSHTAEGDVLALLSICQWRPQALLRWVDAHARPFGTIRPMYGVTASARTKPRPSAVTTTAHLATTRNTSPSLGESRGTKDLPPVKDPGALSREGLLAPLGLLAILTLAVATLYGLSLATPGE [TREX1] | 95.6 | 93.6 |
| MGTSLSPNDPWPLNPLSIQQTTLLLLLSVLATVHVGQRLLRQRRRQLRSAPPGPFAWPLIGNAAAVGQAAHLSFARLARRYGDVFQIRLGSCPIVVLNGERAIHQALVQQGSAFADRPAFASFRVVSGGRSMAFGHYSEHWKVQRRAAHSMMRNFFTRQPRSRQVLEGHVLSEARELVALLVRGSADGAFLDPRPLTVVAVANVMSAVCFGCRYSHDDPEFRELLSHNEEFGRTVGAGSLVDVMPWLQYFPNPVRTVFREFEQLNRNFSNFILDKFLRHCESLRPGAAPRDMMDAFILSAEKKAAGDSHGGGARLDLENVPATITDIFGASQDTLSTALQWLLLLFTRYPDVQTRVQAELDQVVGRDRLPCMGDQPNLPYVLAFLYEAMRFSSFVPVTIPHATTANTSVLGYHIPKDTVVFVNQWSVNHDPLKWPNPENFDPARFLDKDGLINKDLTSRVMIFSVGKRRCIGEELSKMQLFLFISILAHQCDFRANPNEPAKMNFSYGLTIKPKSFKVNVTLRESMELLDSAVQNLQAKETCQ [CYP1B1] | 92.3 | 90.2 |
